# Assay results from patent US7910575B2, “Prophylactic or therapeutic agents for allergic ophthalmic diseases or allergic nasal diseases, comprising tricyclic triazolobenzazepine derivative” (Meiji Seika Kaisha, Ltd., priority 2006, dated 2011).
# Marks after values point to notes of the source that are not given here.
# System: allergic conjunctivitis
# Assay: Prophylactic effect on allergic conjunctivitis (instillation before induction, late phase)
# Format: in vivo, rat
# Conditions: Test Example 1-2, medicament concentration 0.1%
# Description: Male SD rats were prepared. Bordetella pertussis (4×10^10) and 1 mg of dinitrophenylated ovalbumin (hereinafter often abbreviated to “DNP-OA”) were subcutaneously administered into the footpad of the rats. After 8 to 10 days from the administration, a 3% DNP-OA solution was administered to the right eye of the rats to induce an allergic reaction. In some experiments, in order to confirm dye leakage and location of edema, a dye was injected, and, in the anatomy, the coincidence of dye leakage with the location of edema was confirmed. […] After 9 hr from the induction of the allergic reaction, the eyeballs of the rats were harvested. Further, lenses, hydatoids, and the contents of the vitreous body were removed from the eyeballs, and the weight of the tissues was measured. Furthermore, the dye leakage amount in the harvested eye tissue was measured. […] The absorbance (630 nm) of Evans Blue in the supernatant was measured with Multiskan JX (manufactured by Labsystem Ltd.). The amount of the dye was regarded as a dye leakage amount. […] For the control group, 0.15 M sodium hydrogencarbonate adjusted to pH 7.2 was administered. […] In the table, the inhibition ratio was calculated by the following equation. […]
smiles,measurement,value
"C[C@H]1C[C@H]2[C@@H]3CCC4=CC(=O)C=C[C@]4(C)[C@@]3(F)[C@@H](O)C[C@]2(C)[C@@]1(O)C(=O)COP(=O)([O-])[O-].[Na+].[Na+] [Betamethazone, betamethazone sodium phosphate, reference compound]",Inhibition ratio Increase in tissue weight,79.6% **
